Here are results for one molecule from publication PMC13157976.

For experiment [1], the target named is MBD8 ΔC-terminal (the N-terminal 173 amino acids of MBD8) (A. thaliana). In words: pull-down; His-Halo-MBD8 and LDL2-Strep co-expressed in E. coli; lysate on Ni-NTA agarose, 4°C, 1 h; 50 mM Tris-HCl pH 7.5, 500 mM NaCl; eluted with 300 mM imidazole; blots with anti-Strep and anti-Halo.
The target of experiment [2] is His-Halo-tagged MBD8, full-length (A. thaliana). The description is as above.

No constants are given. Whether binding was seen depends on the method and setting. Binding seen in cells or lysates may run through a third protein. A result given as binding can be weak or reduced; the word gives no strength. Where a sequence is shown, tags or fusion partners need not be part of it.

B1: Strep-tagged LDL2 (enzyme, UniProt Q9LID0 1-746)
chain: MNSPASDETAPRRNRRKVSRKNYDENAMDELIEKQLGGKAKKKYRTKQDLEKETETEALIALSVGFPIDELLEEEIRAGVVRELGGKEQNDYIVVRNHIVARWRGNVGIWLLKDQIRETVSSDFEHLISAAYDFLLFNGYINFGVSPLFAPYIPEEGTEGSVIVVGAGLAGLAAARQLLSFGFKVLVLEGRSRPGGRVYTQKMGGKDRFAAVELGGSVITGLHANPLGVLARQLSIPLHKVRDNCPLYNSEGVLVDKVADSNVEFGFNKLLDKVTEVREMMEGAAKKISLGEVLETLRVLYGVAKDSEERKLFDWHLANLEYANAGCLSNLSAAYWDQDDPYEMGGDHCFLAGGNWRLINALAEGLPIIYGKSVDTIKYGDGGVEVISGSQIFQADMILCTVPLGVLKKRSIKFEPELPRRKQAAIDRLGFGLLNKVAMLFPSVFWGDELDTFGCLNESSINRGEFFLFYAYHTVSGGPALVALVAGEAAQRFECTEPSVLLHRVLKKLRGIYGPKGVVVPDPIQTVCTRWGSDPLSYGSYSHVRVGSSGVDYDILAESVSNRLFFAGEATTRQHPATMHGAYLSGLREASKILHVANYLRSNLKKPVQRYSGVNINVLEDMFKRPDIAIGKLSFVFNPLTDDPKSFGLVRVCFDNFEEDPTNRLQLYTILSREQANKIKELDENSNESKLSCLMNTLGLKLMGANSVLDTGGALISVIANARRGRSRSHVVAGQCNLPLNPLHFN
For B1, the binding result in experiment [1] and in experiment [2] was “binds” throughout.
